We go through 8 molecules from US20060253917A1 (published 2006).

In one assay the target is T1, OsMADS45 aa 50-198 (Oryza sativa, UniProt P0C5B0 50-198).
T1 construct: bait, Gal4 DBD fusion; also called PN20231; O. sativa MADS box protein MADS45
T1 sequence: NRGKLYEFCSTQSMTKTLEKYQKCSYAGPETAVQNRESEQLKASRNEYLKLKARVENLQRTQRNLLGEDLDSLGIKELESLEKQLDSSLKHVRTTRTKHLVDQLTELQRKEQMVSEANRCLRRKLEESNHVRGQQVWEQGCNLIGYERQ
Nature of the assay: Y2H; input trait library. In a few lines: (§1)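 Using an automated, high-throughput yeast two-hybrid assay provided by Myriad Genetics Inc. (Salt Lake City, Utah), protein-protein interactions were detected. Against either the input trait or the output trait rice prey library, a bait clone encoding a defined amino-acid fragment of a rice protein was screened. The encoding sequences of the prey clones that were retrieved were then compared against databases by BLAST to identify the interacting proteins.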

A further assay has as its target T2, Os018989-4003 aa 90-220 (Oryza sativa).
T2 construct: bait, Gal4 DBD fusion; also called PN21044
T2 chain: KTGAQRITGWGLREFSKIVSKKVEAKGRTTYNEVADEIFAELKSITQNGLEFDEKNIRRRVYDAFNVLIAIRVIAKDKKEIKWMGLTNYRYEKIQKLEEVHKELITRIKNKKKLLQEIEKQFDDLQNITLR
The assay is described as follows: Y2H; input trait library. In a few lines: as §1

The target in a further assay is T3, OsCS aa 316-583 (Oryza sativa, UniProt A2Y0X2 316-583).
T3 construct: bait, Gal4 DBD fusion; also called PN19707
T3 sequence: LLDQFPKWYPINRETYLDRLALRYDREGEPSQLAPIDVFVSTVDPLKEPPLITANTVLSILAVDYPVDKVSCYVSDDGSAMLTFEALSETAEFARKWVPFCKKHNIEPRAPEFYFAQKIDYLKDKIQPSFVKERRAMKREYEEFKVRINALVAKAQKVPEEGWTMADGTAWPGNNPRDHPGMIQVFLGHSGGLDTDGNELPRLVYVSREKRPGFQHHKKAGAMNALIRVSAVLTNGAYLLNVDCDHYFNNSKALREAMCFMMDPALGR
Nature of the assay: Y2H; output trait library. In a few lines:
(§2)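 Rice protein fragments, each defined by an amino-acid range, served as bait against rice prey clone libraries in an automated, high-throughput yeast two-hybrid screen supplied by Myriad Genetics Inc. Prey clones that interacted were retrieved from the output trait library. The sequences encoding the retrieved fragments were compared against databases by BLAST analysis to identify the full-length genes. Each value records whether an interaction was detected.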

The target in the next assay is T4, OsRAP1B aa 1-150 (Oryza sativa, UniProt Q10CQ1 1-150).
T4 construct: bait, Gal4 DBD fusion; also called PN20232
T4 sequence: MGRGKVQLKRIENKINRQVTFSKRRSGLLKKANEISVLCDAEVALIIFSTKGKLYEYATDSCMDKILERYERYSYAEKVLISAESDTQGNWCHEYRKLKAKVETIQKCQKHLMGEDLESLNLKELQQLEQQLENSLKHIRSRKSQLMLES
The assay is described as follows: Y2H; input trait library. In a few lines:
as §1

Another assay concerns the target T5, OsMADS6 aa 50-200 (Oryza sativa, UniProt Q6EU39 50-200).
T5 construct: bait, Gal4 DBD fusion; also called PN20233
T5 sequence: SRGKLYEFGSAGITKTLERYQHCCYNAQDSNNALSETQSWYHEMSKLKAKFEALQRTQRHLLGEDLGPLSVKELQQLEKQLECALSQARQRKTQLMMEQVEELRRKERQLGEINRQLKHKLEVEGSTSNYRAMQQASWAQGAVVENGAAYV
The assay is described as follows: Y2H; output trait library. Summed up:
as §1

A further assay concerns the target T6, OsSGT1 aa 200-368 (Oryza sativa, UniProt Q0JL44 200-367).
T6 construct: bait, Gal4 DBD fusion; also called PN20285
T6 sequence: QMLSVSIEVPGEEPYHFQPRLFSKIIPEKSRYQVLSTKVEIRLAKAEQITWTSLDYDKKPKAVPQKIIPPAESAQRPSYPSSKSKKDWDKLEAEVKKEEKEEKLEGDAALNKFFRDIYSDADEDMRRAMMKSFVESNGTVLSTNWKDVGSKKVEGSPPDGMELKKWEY
The assay is described as follows: Y2H; output trait library. In a few lines:
as §2

For another assay, the target named is T7, PN20115 aa 5-140 (Oryza sativa).
T7 construct: bait, Gal4 DBD fusion; also called Ring zinc finger protein
T7 chain: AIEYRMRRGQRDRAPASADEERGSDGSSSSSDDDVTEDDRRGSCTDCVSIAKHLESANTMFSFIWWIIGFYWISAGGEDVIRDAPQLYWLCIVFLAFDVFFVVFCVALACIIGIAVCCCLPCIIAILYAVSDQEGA
The assay is described as follows: Y2H; output trait library.

Another assay deals with T8, OsHOS59 aa 1-100 (Oryza sativa, UniProt Q94LW4 113-212).
T8 construct: bait, Gal4 DBD fusion; also called PN20559; O. sativa Homeobox Protein HOS59, Fragment
T8 sequence: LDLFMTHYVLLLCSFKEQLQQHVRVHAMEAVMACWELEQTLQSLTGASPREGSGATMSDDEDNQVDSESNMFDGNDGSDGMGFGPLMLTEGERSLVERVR
Nature of the assay: Y2H; output trait library. In a few lines:
as §1

B1: Os008339 aa 30-178 (other)
chain: SKRRRGLFKKAEELSILCDAEVGLVVFSATGKLFQFASTSMEQIIDRYNSHSKTLQRAEPSQLDLQGEDSSTCARLKEELAETSLRLRQMRGEELHRLNVEQLQELEKSLESGLGSVLKTKSKKILDEIDGLERKRMQLIEENLRLKEQ
notes: prey, AD fusion; also called PN20847; O. sativa OS008339 MADS box transcription factor, fragment
Turning to B1, in the assay with OsMADS45 aa 50-198, the binding result is “binds”.

B2: OsE2F1 aa 95-276 (other)
chain: SNVGSPLNPPTPVGTCRYDSSLGLLTKKFINLLKQAPDGILDLNNAAETLEVQKRRIYDITNVLEGIGLIEKTLKNRIRWKGLDDSGVELDNGLSALQAEVENLSLKEQALDERISDMREKLRGLTEDENNQRWLYVTEDDIKGLPCFQNETLIAIKAPHGTTLEVPDPDEAGDYLQRRYRI
notes: prey, AD fusion; also called PN19758
For B2, in the assay with Os018989-4003 aa 90-220, the binding result was “binds”.

B3: OsPN29118 aa 1-136 (other)
chain: TSSGDQQMVTVAERFPREVSSEAVFRCVRLGPVDQAEAEVAYQTAVSIGGHVFKGILHDVGPEALAVAGGGGASEYHFRLTGDGSSPSTAAAGEAGSGGGGNIIVSSAVVMDPYPTPGPYGAFPAGTPFFHGHPRP
notes: prey, AD fusion; also called Novel Protein PN29118, Fragment
Regarding B3, in the assay with OsCS aa 316-583, the binding result is recorded as “binds”.

B4: Os008339 aa 32-162 (other)
chain: RRRGLFKKAEELSILCDAEVGLVVFSATGKLFQFASTSMEQIIDRYNSHSKTLQRAEPSQLDLQGEDSSTCARLKEELAETSLRLRQMRGEELHRLNVEQLQELEKSLESGLGSVLKTKSKKILDEIDGLE
notes: prey, AD fusion; also called PN20847
B4: in the assay with OsRAP1B aa 1-150, the binding result is “binds”.

B5: OsMADS15 aa 1-176 (other)
chain: MGRGKVQLKRIENKINRQVTFSKRRNGLLKKAHEISVLCDAEVAAIVFSPKGKLYEYATDSRMDKILERYERYSYAEKALISAESESEGNWCHEYRKLKAKIETIQKCHKHLMGEDHESLNLKELQQLEQQLESSLKHIISRKSHLMLESISELQKKERSLQEENKALQKELVERQ
notes: prey, AD fusion; also called PN20842
As for B5, the binding result in the assay with OsMADS6 aa 50-200 was “binds”.

B6: PN24060 aa 176-315 (other)
chain: EKGMKEAENVVEAKSSQLESLVSHEGEKTPRPQAVAEGSSKVVPTPVEYTVNDIIDGKTVNAVEGLKVYEGLVNENEKNKILSLLNETKASFRRGGLEAGQTVIIGKRPMKGHGREIIQLGIPIVEGPPEDDYPRETKVE
notes: prey, AD fusion; also called L-aspartase-like protein-like
With B6, the binding result in the assay with OsSGT1 aa 200-368 is recorded as “binds”.

B7: PN23221 aa 84-302 (other)
chain: PEPEPKPEPKPEPKPEPKPEPKPYPEPKPEPKPEPKPEPEPKPEPKPEPKPEPKPYPEPKPEPKPEPKPEPKPEPKPKPEPKPHPEPKPDPKPEPKPHPEPEPKPEPKPEPKPHPEPEPKPEPKPEPKPEPKPEPKPEPKPKPKPEPKPKPEPKPYPEPKPKPEPKPEPKPEPKPEPKPEPKPEPKPEPKPEPKPKPEPKPHPKPEPKPEPKPEPKPEP
notes: prey, AD fusion; also called Proline rich protein
On to B7, for which the binding result in the assay with PN20115 aa 5-140 is recorded as “binds”.

B8: OsMYB aa 36-129 (other)
chain: CWRAVPKLAGLLRCGKSCRLRWTNYLRPDLKRGLLSETEEKTVIDLHEQLGNRWSKIASHLPGRTDNEIKNHWNTHIKKKLRKMGIDPVTHKPL
notes: prey, AD fusion; also called PN20689; O. sativa Probable Myb Factor
Regarding B8, the binding result in the assay with OsHOS59 aa 1-100 was “binds”.
